This passage reports binding signal results from PMC7819943, “Rice protein-binding microarrays: a tool to detect cis-acting elements near promoter regions in rice”.

Sequences of proteins named here, by UniProt entry; tags and fusion partners are left off.
UniProt Q0JBA9, entry or part of it: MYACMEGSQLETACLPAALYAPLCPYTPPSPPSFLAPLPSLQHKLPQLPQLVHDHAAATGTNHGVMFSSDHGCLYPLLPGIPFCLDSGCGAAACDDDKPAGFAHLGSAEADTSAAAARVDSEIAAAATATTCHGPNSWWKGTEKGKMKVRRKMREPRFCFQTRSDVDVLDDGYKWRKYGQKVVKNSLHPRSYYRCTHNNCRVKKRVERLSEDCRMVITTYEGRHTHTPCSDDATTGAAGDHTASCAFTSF

The list shows a part of the results.

The target of this assay is OsWRKY34 (Oryza sativa, UniProt Q0JBA9 1-250). As to the kind of experiment: protein-binding microarray (RPBM); PBS, 2% BSA, 51.3 ng/ul salmon testes DNA, 50 uM zinc acetate, 200 nM TF, 25 C, 1 h; high values mean tight binding. The settings on record: protein: recombinant; tags: N-terminal polyhistidine and DsRed monomer fusion (pET32a); label: CyDye5-dUTP incorporated in the synthesized complementary strand; 3' TTTTT single-stranded linker to array surface; dsDNA, one strand shown. The method, boiled down:
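The binding signal is fluorescence intensity per array feature (arbitrary units). Readings came from an Axon 4000B scanner after a washed, 2% BSA-blocked, double-stranded custom Agilent array had been incubated for 1 h at 25 °C with 200 nM protein and 50 µM zinc acetate. The protein was a Ni–NTA-purified transcription factor fused N-terminally to polyhistidine and DsRed, expressed in E. coli BL21-CodonPlus.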
Consider “TCTATCTGGATTTGATTTTTAGTCCGTGTTTAGATCTCCTCGGAGTCACCTAGTGCAG”, for which the binding signal was 10000 fluorescence intensity (a.u.). The same measure for “CATCAGTTCACCACCACCGCCCATATGCATTCATGGTCCTCGGAGTCACCTAGTGCAG”: 8040 fluorescence intensity (a.u.); for “TTAGGGTGGTTACTGTAAAATTTGGACTCCTTTGCAAATTCGGAGTCACCTAGTGCAG”: 8260 fluorescence intensity (a.u.). In the case of “GAGCCCGGCCGGCTGCACCTTTCGCTAAGGCCGTGTGTTTCGGAGTCACCTAGTGCAG”, the binding signal is 8100 fluorescence intensity (a.u.). For “GTCCTCTATATATGTAGTTGGTCTTGCTTTGACAGATATACGGAGTCACCTAGTGCAG”, the binding signal was 11600 fluorescence intensity (a.u.).

Consider “CTATCTACTTCCACTTATAACATTTATTTAGCTTATAGTTCGGAGTCACCTAGTGCAG”, for which the binding signal was 10500 fluorescence intensity (a.u.). With “CTCCGTCTTGATATTTTCGATTTGAATTTGGACTGATCTACGGAGTCACCTAGTGCAG”, the binding signal was 9700 fluorescence intensity (a.u.). As for “ACTGTTCACTCCTCGTCCTCTTGTTTTTTTTTGGCTTCGACGGAGTCACCTAGTGCAG”, the binding signal was 14200 fluorescence intensity (a.u.). For the sequence “GGCGGCGGGGAGGTGGCGGCAAGGGAGGCGGCGGCGAGGGCGGAGTCACCTAGTGCAG”, the binding signal was 11200 fluorescence intensity (a.u.).

As to “CTCTCCATGCTATTGATGATGCACTTAGATTATGGTTTTTCGGAGTCACCTAGTGCAG”, the binding signal is 8460 fluorescence intensity (a.u.). Consider “GGTTCTATACTCCTAGGGAGTACGTACTCCTGCTCTCATCCGGAGTCACCTAGTGCAG”, for which the binding signal is 8480 fluorescence intensity (a.u.).

Consider “GCTTTATCTCTTCAATAGCCTTACCTACCTTACCTTACGTCGGAGTCACCTAGTGCAG”, for which the binding signal is 8180 fluorescence intensity (a.u.).

“CCTTCTTTCCCAACTCACTTTTTTTTCGCACGCACGCTTTCGGAGTCACCTAGTGCAG”: the binding signal is 9060 fluorescence intensity (a.u.).

On to “TAGCATATCTTTATTTCTTTCAGTATTGCAACTGAGCATTCGGAGTCACCTAGTGCAG”, for which the binding signal was 9760 fluorescence intensity (a.u.). As for “GGTGACTGATAATTATTATTTTCTTTGTTTCACATTATACCGGAGTCACCTAGTGCAG”, the figure is 14200 fluorescence intensity (a.u.); as for “CCCCACCTGTCAGCTTCCATGGCATGATCATTTCATCTTCCGGAGTCACCTAGTGCAG”, 13600 fluorescence intensity (a.u.); as for “CTACACGTTGAATTATTTGCTTATCACTTTCCCTATCAGCCGGAGTCACCTAGTGCAG”, 9100 fluorescence intensity (a.u.). As to “CAACCTTATCCTCTTGATTCTTCCTCTCCTCTCTCTCTCACGGAGTCACCTAGTGCAG”, the binding signal is 8710 fluorescence intensity (a.u.).

Turning to “TTTTGGGGTGGGTTTTGGTATCTGATGCTTACGGGCATCTCGGAGTCACCTAGTGCAG”, the binding signal is 18100 fluorescence intensity (a.u.). Regarding “CACTCCGCCTGGCCCTCCGCTCCGCCGCCGCTCCGCCGGCCGGAGTCACCTAGTGCAG”, the binding signal is 10500 fluorescence intensity (a.u.). As for “AACATTTTCCTTTGTAGCTAGGTTTCTGTTATCGGTTTTCCGGAGTCACCTAGTGCAG”, the figure is 14300 fluorescence intensity (a.u.).

Turning to “CATTGTTCATATTCAATGTTTGACCGTTCGTCTTATTTGACGGAGTCACCTAGTGCAG”, the binding signal is 10200 fluorescence intensity (a.u.). The same measure for “TGATATGTTGGTGAATGGTAATTTTTTGGGTTGATATATTCGGAGTCACCTAGTGCAG”: 11200 fluorescence intensity (a.u.); for “GCCTGCCCGGCCACATCATGTTTCCATCGTTGTCCTCCTTCGGAGTCACCTAGTGCAG”: 15700 fluorescence intensity (a.u.); for “TTTGTTTTATAAATCCGTCTCGCAATCATAGTAATATTATCGGAGTCACCTAGTGCAG”: 8300 fluorescence intensity (a.u.). As to “GCACAGTGGGAGGCCCGCGTTCTTTTTTTTTCGCCGGTTTCGGAGTCACCTAGTGCAG”, the binding signal was 10000 fluorescence intensity (a.u.). The same measure for “TTTGACCAACCGAAACTCGACGGCCCACCCACCAACCACCCGGAGTCACCTAGTGCAG”: 9420 fluorescence intensity (a.u.); for “CATGGTACCTATTGCAGCTAGTCATAACAAGTTGTTCATACGGAGTCACCTAGTGCAG”: 8210 fluorescence intensity (a.u.); for “CTATTTGCTTCGGTTGCACATTTTTTTTAATTACACATTACGGAGTCACCTAGTGCAG”: 8600 fluorescence intensity (a.u.). For “AATCCTCATTCTTTCCTATTGGGTATATACATTACAATTACGGAGTCACCTAGTGCAG”, the binding signal was 9530 fluorescence intensity (a.u.). As to “AGCTATTCTAGTATTATTGGTTGCATGTTCATTAGTTTTGCGGAGTCACCTAGTGCAG”, the binding signal was 9600 fluorescence intensity (a.u.).

“TCAAATCCCACAGCTGTCACAATTTATTCTTTTTCCCTTTCGGAGTCACCTAGTGCAG”: the binding signal is 10800 fluorescence intensity (a.u.). In the case of “CAATTGAATTCTGCAAAACATCACCTCCTGTCTTCAATTCCGGAGTCACCTAGTGCAG”, the binding signal is 10500 fluorescence intensity (a.u.). The same measure for “GGTTTCCGTGGTGGGCCGGTTTGGGCTTTTCTTTTTTACACGGAGTCACCTAGTGCAG”: 18500 fluorescence intensity (a.u.). Regarding “GTAACTCTGCCACTTGGGCCTATTTCTACTTGTTAAAGCACGGAGTCACCTAGTGCAG”, the binding signal is 9860 fluorescence intensity (a.u.). Take “AGGGTTCGTCTTGGCTATACAGTCGCTTGGATTTCTTATGCGGAGTCACCTAGTGCAG”: the binding signal is 12000 fluorescence intensity (a.u.).

Take “TTCCACCCTCGCCGTCGAGCCGCACCACCGCCGCTTCGCCCGGAGTCACCTAGTGCAG”: the binding signal was 9880 fluorescence intensity (a.u.). For “AACCCTTGTTACGTGCAATCACATTGGCCCCAGTTCATCACGGAGTCACCTAGTGCAG”, the binding signal was 8120 fluorescence intensity (a.u.). As to “CCCTTCTCCAACCCCGCTTCAAATTTGGATCGCGTCGATTCGGAGTCACCTAGTGCAG”, the binding signal is 8470 fluorescence intensity (a.u.). The same measure for “GCACGAGCCGACGATCCCAGTACACCCAACATGGCCACATCGGAGTCACCTAGTGCAG”: 9020 fluorescence intensity (a.u.); for “GATGGAACCGCCCTATTGGATGACAACGCCAGTCAGTCTGCGGAGTCACCTAGTGCAG”: 8160 fluorescence intensity (a.u.); for “GCGTACATAGTTTTCAGCCTCTGAACCTTTTTCAGTTTCACGGAGTCACCTAGTGCAG”: 8150 fluorescence intensity (a.u.).
